Taken from: PubChem BioAssay AID1159508 (Drosophila RNAi Screening Center, 2015)
Assay: 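Viability reference data for a dsRNA library against RNA-binding protein genes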. Cell system: Drosophila S2R+ cells. Reagent: long dsRNA against Drosophila genes. Timing: 5 days. Detection: 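Total ATP per well measured by luciferase luminescence after 5 days, expressed as z-scores for each replicate and as their average across up to three replicates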. Scale: mean ATP z-score and ATP z-score: higher = more total ATP luminescence. Call rule: In these data the active calls have mean ATP z-score at about -2 or lower, or at about 2 or higher. Meaning of the calls: active = strong ATP change (up or down); inactive = no strong ATP change.
This is an unselected part of 812 reagents. In the full data, 18 (2.2%) are marked active. 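Calls include both increased and decreased ATP; roughly one in four reagents has no third replicate value.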 A number with no mark means an inactive call. Names joined by + are all predicted targets of the reagent. Not all columns of the deposit are shown. No sequences are given here. Not given: the amount of reagent.

After knock-down of Mettl3 [DRSC15921], the record shows mean ATP z-score 0.871; ATP z-score, replicate 1 = 0.74.
Depletion of Mettl3 [DRSC27423] came out at: mean ATP z-score -0.205; ATP z-score, replicate 1 = -0.353.
Against bcd [DRSC25303], the entry reads mean ATP z-score 1.29; ATP z-score, replicate 1 = 0.0304.
bcd [DRSC40455] scored mean ATP z-score 0.766; ATP z-score, replicate 1 = 0.552.
Against Tis11 [DRSC23110] the deposit lists mean ATP z-score -0.344; ATP z-score, replicate 1 = -0.513.
Against Tis11 [DRSC34943], the entry reads mean ATP z-score 1.16; ATP z-score, replicate 1 = 0.561.
After knock-down of CG6961 + CG18259 [DRSC19799], the screen gave mean ATP z-score 0.641; ATP z-score, replicate 1 = 0.31.
With knock-down of CG6961 + CG18259 [DRSC26849] the results were mean ATP z-score -0.58; ATP z-score, replicate 1 = -0.738.
Silencing of gw [DRSC17135] resulted in: mean ATP z-score 2.19 (active); ATP z-score, replicate 1 = 1.92.
gw [DRSC38395] showed mean ATP z-score 0.603; ATP z-score, replicate 1 = 0.327.
Silencing of mub [DRSC11896] resulted in: mean ATP z-score -1.11; ATP z-score, replicate 1 = -1.38.
mub [DRSC29738] scored mean ATP z-score 0.323; ATP z-score, replicate 1 = 0.185.
Silencing of CG7849 [DRSC04895] resulted in: mean ATP z-score -1.04; ATP z-score, replicate 1 = -1.02.
After knock-down of CG7849 [DRSC26457] the results were mean ATP z-score -1.58; ATP z-score, replicate 1 = -1.56.
Snp + CG44249 [DRSC04524] scored mean ATP z-score 0.409; ATP z-score, replicate 1 = 0.0984.
Against Snp + CG44249 [DRSC42717], the values are mean ATP z-score 0.26; ATP z-score, replicate 1 = -0.00971.
Knock-down of mle [DRSC04921] resulted in: mean ATP z-score -0.892; ATP z-score, replicate 1 = -1.15.
Depletion of mle [DRSC37605] resulted in: mean ATP z-score -0.336; ATP z-score, replicate 1 = -0.378.
Rox8 [DRSC16829] scored mean ATP z-score 0.828; ATP z-score, replicate 1 = 0.0739.
Depletion of Rox8 [DRSC29536] gave: mean ATP z-score 0.178; ATP z-score, replicate 1 = -0.281.
Silencing of CG13096 [DRSC02198] came out at: mean ATP z-score 0.716; ATP z-score, replicate 1 = -0.16.
Against CG13096 [DRSC33862] the deposit lists mean ATP z-score 0.412; ATP z-score, replicate 1 = 0.242.
